From article doi:10.1101/605725
These are yes or no findings as the source states them, for the method shown. In cells and extracts the contact can be indirect. A yes stands for co-enrichment or nearness to the bait. Other partners may have been found.

Chains of the proteins cited; added tags and fusions are not shown.
UniProt Q9VV73: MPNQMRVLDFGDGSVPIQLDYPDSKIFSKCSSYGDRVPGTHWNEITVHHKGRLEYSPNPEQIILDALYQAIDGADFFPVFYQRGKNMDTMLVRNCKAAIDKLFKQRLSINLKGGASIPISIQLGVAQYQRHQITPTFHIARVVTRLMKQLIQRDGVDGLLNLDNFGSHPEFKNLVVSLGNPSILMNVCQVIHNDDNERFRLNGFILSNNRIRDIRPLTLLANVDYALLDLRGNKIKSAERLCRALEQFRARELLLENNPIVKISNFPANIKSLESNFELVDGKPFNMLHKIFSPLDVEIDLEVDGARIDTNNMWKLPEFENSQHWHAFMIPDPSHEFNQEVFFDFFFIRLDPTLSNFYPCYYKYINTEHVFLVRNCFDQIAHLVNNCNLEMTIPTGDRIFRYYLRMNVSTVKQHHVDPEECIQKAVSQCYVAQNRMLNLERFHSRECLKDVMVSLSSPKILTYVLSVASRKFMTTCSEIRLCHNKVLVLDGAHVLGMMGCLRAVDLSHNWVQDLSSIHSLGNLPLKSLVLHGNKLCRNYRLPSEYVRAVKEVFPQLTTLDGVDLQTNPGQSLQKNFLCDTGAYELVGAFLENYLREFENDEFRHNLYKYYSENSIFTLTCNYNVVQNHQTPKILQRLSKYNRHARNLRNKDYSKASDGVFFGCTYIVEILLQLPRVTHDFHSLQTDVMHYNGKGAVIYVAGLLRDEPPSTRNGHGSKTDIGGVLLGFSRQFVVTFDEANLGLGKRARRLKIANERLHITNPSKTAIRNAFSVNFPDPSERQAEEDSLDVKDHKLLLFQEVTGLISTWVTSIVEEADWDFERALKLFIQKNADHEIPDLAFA

Target: flag-tagged Nxf2 (Drosophila) (UniProt Q9VV73)
Test: affinity purification with mass spectrometry

B1: Piwi (protein, UniProt Q9VKM1 1-843)
chain: MADDQGRGRRRPLNEDDSSTSRGSGDGPRVKVFRGSSSGDPRADPRIEASRERRALEEAPRREGGPTERKPWGDQYDYLNTRPAELVSKKGTDGVPVMLQTNFFRLKTKPEWRIVHYHVEFEPSIENPRVRMGVLSNHANLLGSGYLFDGLQLFTTRKFEQEITVLSGKSKLDIEYKISIKFVGFISCAEPRFLQVLNLILRRSMKGLNLELVGRNLFDPRAKIEIREFKMELWPGYETSIRQHEKDILLGTEITHKVMRTETIYDIMRRCSHNPARHQDEVRVNVLDLIVLTDYNNRTYRINDVDFGQTPKSTFSCKGRDISFVEYYLTKYNIRIRDHNQPLLISKNRDKALKTNASELVVLIPELCRVTGLNAEMRSNFQLMRAMSSYTRMNPKQRTDRLRAFNHRLQNTPESVKVLRDWNMELDKNVTEVQGRIIGQQNIVFHNGKVPAGENADWQRHFRDQRMLTTPSDGLDRWAVIAPQRNSHELRTLLDSLYRAASGMGLRIRSPQEFIIYDDRTGTYVRAMDDCVRSDPKLILCLVPNDNAERYSSIKKRGYVDRAVPTQVVTLKTTKNRSLMSIATKIAIQLNCKLGYTPWMIELPLSGLMTIGFDIAKSTRDRKRAYGALIASMDLQQNSTYFSTVTECSAFDVLANTLWPMIAKALRQYQHEHRKLPSRIVFYRDGVSSGSLKQLFEFEVKDIIEKLKTEYARVQLSPPQLAYIVVTRSMNTRFFLNGQNPPPGTIVDDVITLPERYDFYLVSQQVRQGTVSPTSYNVLYSSMGLSPEKMQKLTYKMCHLYYNWSGTTRVPAVCQYAKKLATLVGTNLHSIPQNALEKKFYYL
- binding: binds
